No constants are given. Whether binding was seen depends on the method and setting. A result given as binding can be weak or reduced; the word gives no strength.

Consider one substance from PMC6634424.

The experiment deals with T1, ZRK1/RKS1 (Arabidopsis thaliana) (UniProt Q9SVY5).
T1 sequence: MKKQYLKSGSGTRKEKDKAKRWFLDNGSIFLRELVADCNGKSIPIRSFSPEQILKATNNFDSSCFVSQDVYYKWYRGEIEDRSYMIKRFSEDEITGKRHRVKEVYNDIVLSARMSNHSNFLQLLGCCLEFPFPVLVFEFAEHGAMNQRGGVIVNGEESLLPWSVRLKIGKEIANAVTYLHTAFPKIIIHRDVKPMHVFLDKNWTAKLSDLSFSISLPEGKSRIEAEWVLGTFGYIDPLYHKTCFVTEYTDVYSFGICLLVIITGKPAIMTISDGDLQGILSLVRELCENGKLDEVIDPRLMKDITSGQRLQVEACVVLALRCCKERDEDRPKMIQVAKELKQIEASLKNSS
Nature of the experiment: two-hybrid; Y3H: LexA-ZRK1/RKS1 bait, 46 PBL preys, AvrAC expressed from the yeast ho locus.

Consider PBL29 (from UniProt Q7Y224), for which the binding entry is “binds”.
